These are yes or no findings as the source states them, for the method shown. Binding seen in cells or lysates may run through a third protein. Some entries that bind do so weakly or less than the wild type.
How the values were obtained:
HA-PAX8 FL = HA-PAX8 FL (UniProt Q06710); test: co-IP; HEK293FT transfected with HA-PAX8 FL and PRDM3 FL, NP40 lysate (320 ug), magnetic HA beads overnight at 4 °C, Western blot
PAX8-LgBit = PAX8-LgBit (UniProt Q06710); test: split reporter; IVTT-NanoBit: PAX8-LgBit and mutants made in a mammalian in vitro transcription-translation system, mixed with PRDM3-SmBit (Fig. 2B)
LgBiT-PAX8 FL = LgBiT-PAX8 FL (UniProt Q06710); test: split reporter; cellular NanoBit assay in transfected HEK293A cells, luminescence 48 h after transfection

Amino acid sequences for entries named in this document (tags omitted). A change or cut given only in a name is not applied to a line headed by its entry. Chains listed by the source or under a name are the forms on record and can include a tag or linker.
UniProt Q06710: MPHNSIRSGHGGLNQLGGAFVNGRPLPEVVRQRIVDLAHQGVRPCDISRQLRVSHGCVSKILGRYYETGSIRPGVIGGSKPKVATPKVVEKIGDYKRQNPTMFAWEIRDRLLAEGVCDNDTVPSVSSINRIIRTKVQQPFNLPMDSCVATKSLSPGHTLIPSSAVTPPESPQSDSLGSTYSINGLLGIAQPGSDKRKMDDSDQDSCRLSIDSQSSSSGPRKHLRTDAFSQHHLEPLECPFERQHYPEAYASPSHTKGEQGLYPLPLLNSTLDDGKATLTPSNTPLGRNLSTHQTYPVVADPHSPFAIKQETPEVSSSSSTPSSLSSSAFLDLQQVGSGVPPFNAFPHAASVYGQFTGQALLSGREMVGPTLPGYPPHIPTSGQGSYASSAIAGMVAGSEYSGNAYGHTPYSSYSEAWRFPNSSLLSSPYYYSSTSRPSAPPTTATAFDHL
UniProt Q03112: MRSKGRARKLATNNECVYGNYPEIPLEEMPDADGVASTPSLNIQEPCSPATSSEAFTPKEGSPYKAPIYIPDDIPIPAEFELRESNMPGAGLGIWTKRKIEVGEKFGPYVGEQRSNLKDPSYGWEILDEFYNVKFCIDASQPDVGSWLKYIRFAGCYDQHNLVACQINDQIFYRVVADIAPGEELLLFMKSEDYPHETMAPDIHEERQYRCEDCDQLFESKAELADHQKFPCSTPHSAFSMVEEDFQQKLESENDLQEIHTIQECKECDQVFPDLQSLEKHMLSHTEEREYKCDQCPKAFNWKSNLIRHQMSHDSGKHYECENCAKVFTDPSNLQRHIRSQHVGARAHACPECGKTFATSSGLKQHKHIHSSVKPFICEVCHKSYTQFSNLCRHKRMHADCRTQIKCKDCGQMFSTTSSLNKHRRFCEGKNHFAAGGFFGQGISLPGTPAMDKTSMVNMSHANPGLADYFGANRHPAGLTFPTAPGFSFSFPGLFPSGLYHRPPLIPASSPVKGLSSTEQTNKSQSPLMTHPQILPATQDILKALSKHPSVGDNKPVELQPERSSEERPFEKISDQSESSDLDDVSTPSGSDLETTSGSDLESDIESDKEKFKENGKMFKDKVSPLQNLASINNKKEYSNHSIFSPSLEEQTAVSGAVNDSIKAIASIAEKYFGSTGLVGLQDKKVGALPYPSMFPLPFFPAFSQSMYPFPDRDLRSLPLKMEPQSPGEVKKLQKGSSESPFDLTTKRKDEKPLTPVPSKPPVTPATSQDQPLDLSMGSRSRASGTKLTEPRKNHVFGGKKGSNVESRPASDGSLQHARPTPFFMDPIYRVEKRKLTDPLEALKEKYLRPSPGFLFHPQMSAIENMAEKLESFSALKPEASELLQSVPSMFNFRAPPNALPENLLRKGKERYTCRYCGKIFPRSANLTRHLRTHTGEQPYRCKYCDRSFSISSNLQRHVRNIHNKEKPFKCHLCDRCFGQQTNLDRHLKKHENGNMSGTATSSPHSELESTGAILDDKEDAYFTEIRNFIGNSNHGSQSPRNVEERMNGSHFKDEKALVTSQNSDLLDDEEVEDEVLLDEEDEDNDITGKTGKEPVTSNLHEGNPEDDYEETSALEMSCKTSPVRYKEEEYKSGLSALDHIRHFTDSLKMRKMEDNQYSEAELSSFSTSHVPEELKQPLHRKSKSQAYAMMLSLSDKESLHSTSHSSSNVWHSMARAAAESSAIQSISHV
PRDM3 FL (Q03112-3, form named): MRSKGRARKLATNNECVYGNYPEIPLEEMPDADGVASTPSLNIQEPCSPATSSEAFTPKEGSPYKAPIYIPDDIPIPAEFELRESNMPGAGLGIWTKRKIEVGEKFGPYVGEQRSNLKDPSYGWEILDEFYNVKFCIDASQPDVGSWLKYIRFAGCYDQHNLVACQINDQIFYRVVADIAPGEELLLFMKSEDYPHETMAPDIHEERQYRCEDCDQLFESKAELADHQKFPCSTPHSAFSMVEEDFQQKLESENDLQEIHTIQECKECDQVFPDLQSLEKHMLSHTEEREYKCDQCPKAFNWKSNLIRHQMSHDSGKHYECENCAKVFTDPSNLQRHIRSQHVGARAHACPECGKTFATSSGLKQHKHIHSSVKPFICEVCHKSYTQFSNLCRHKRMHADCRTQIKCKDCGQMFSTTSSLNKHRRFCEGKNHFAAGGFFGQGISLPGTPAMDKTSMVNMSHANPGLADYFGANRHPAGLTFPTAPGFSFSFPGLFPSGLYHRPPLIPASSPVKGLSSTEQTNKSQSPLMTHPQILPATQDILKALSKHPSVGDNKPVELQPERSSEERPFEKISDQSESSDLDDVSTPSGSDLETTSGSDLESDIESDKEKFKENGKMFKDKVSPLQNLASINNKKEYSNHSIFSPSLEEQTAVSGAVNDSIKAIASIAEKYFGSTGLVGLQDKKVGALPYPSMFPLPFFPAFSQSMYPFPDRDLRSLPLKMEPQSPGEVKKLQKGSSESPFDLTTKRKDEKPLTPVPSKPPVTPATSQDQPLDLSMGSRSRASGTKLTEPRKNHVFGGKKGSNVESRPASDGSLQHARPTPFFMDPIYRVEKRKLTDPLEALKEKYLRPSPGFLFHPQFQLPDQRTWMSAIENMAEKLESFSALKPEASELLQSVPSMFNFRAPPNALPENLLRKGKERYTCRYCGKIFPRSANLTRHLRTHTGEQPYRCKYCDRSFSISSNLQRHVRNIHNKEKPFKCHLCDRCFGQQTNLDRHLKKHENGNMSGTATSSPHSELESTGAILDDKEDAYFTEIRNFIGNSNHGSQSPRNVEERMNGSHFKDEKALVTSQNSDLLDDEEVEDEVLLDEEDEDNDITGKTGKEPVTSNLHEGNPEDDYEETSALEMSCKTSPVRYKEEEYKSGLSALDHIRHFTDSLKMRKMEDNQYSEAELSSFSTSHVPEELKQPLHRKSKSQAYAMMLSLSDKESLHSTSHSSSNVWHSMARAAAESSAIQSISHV

PRDM3 FL (from UniProt Q03112-3 1-1239) was tested, and the binding (HA-PAX8 FL) was “binds”.

For “PRDM3-SmBit (from UniProt Q03112 1-1230)”, the binding (PAX8-LgBit) was “binds”.

“PRDM3 FL-SmBiT (from UniProt Q03112 1-1230)” was tested, and the binding (LgBiT-PAX8 FL) was “binds”.

From paper PMC8076227
